Binding data for 4 molecules are collected here from patent publication US20160046721A1.

Chains of the proteins cited; added tags and fusions are not shown. Lines headed by an entry give the natural chain unless they say otherwise; changes in a name come on top. Residues count along the entry.
UniProt P03372, residues 302-595: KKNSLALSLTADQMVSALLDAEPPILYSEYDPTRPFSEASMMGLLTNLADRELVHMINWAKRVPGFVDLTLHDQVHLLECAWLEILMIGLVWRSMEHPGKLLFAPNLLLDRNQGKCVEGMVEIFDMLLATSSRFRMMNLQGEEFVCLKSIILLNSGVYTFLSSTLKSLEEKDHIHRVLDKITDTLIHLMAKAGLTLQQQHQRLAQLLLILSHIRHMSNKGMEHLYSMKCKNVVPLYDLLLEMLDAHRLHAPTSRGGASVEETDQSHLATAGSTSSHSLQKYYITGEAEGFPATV

No constants are given. Whether binding was seen depends on the method and setting. Some binding calls cover weakened binding; strength is not graded here.

The target of assay [1] is Fc-ER66 (fusion protein of Fc and ER-α66 ligand binding domain) (human) (UniProt P03372). Kind of assay: ELISA on coated Fc-ER66, antibody in 5-fold dilutions. On the technique in general: ELISA stands for enzyme-linked immunosorbent assay.
Assay [2] deals with Fc-LBD-D27 (Fc-LBD with the C-terminal 27 amino acids deleted) (human) (UniProt P03372). Put plainly: ELISA on coated Fc-LBD-D27, antibody in 5-fold dilutions.
Assay [3] has as its target Fc-LBD (fusion protein of Fc and ER-α36 ligand binding domain including the C-terminal 27 amino acids) (human). Put plainly: ELISA on coated Fc-LBD, antibody in 5-fold dilutions from 10 ug/ml.
The target of assay [4] is T1, GV27 peptide (ER-α36 c-terminal 27 aa) (human).
T1 sequence (peptide): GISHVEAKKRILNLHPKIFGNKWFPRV
Kind of assay: ELISA on the coated 27-aa peptide, antibody in 5-fold dilutions from 10 ug/ml.

Assay [5] concerns the target T2, biotinylated GV27 peptide (human).
T2 sequence (peptide, biotinylated (site not stated)): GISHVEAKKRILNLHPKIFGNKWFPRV
Kind of assay: competition ELISA: plate coated with SNGmB1 (1 µg/ml), biotinylated GV27 added together with the soluble antibody.

B1: SNGHZD (C1L + C6H) (antibody, human IgG1, kappa, V domains shown)
VH: QVQLVQSGAEVKKPGASVKVSCKASGYTFTSHNMHWVRQAPGQGLEWIGAIHPVNGDTAYNQKFKGKATLTVDKSTSTAYMELSSLRSEDTAVYYCAREGYGSVDYWGQGTLVTVSS
VL: ETTVTQSPAFMSATPGDKVNISCITSTDIDDDMNWYQQKPGEAPILIISEGNTLRPGIPPRFSSSGYGTDFTLTINNIESEDAAYYFCLQSDNLPLTFGQGTKLEIKR
B1: the binding result in assay [1] is given as “no binding (tested: 10 ug/ml)”; in assay [2], “no binding (tested: 10 ug/ml)”; in assay [3], “binds”; in assay [4] it was “binds”; in assay [5], “binds”.

B2: SNGHZD (C1L + C5H) (antibody, human IgG1, kappa, V domains shown)
VH: QVQLVQSGAEVKKPGASVKVSCKASGYTFTSHNMHWVRQAPGQGLEWIGAIHPVNGDTAYNQKFKGKATLTVDKSTSTAYLELSSLRSEDTAVYYCAREGYGSVDYWGQGTLVTVSS
VL: ETTVTQSPAFMSATPGDKVNISCITSTDIDDDMNWYQQKPGEAPILIISEGNTLRPGIPPRFSSSGYGTDFTLTINNIESEDAAYYFCLQSDNLPLTFGQGTKLEIKR
Consider B2, for which the binding entry in assay [5] was “binds”.

B3: SNGHZD (C2L + C5H) (antibody, human IgG1, kappa, V domains shown)
VH: QVQLVQSGAEVKKPGASVKVSCKASGYTFTSHNMHWVRQAPGQGLEWIGAIHPVNGDTAYNQKFKGKATLTVDKSTSTAYLELSSLRSEDTAVYYCAREGYGSVDYWGQGTLVTVSS
VL: ETTVTQSPAFMSATPGDKVNISCITSTDIDDDMNWYQQKPGEAAILIISEGNTLRPGIPPRFSSSGYGTDFTLTINNIESEDAAYYFCLQSDNLPLTFGQGTKLEIKR
For the molecule B3, the binding result is “no binding (tested: 10 ug/ml)” in assay [1]; “no binding (tested: 10 ug/ml)” in assay [2]; “binds” in assay [3]; “binds” in assay [4]; “binds” in assay [5].

B4: SNGHZD (C2L + C6H) (antibody, human IgG1, kappa, V domains shown)
VH: QVQLVQSGAEVKKPGASVKVSCKASGYTFTSHNMHWVRQAPGQGLEWIGAIHPVNGDTAYNQKFKGKATLTVDKSTSTAYMELSSLRSEDTAVYYCAREGYGSVDYWGQGTLVTVSS
VL: ETTVTQSPAFMSATPGDKVNISCITSTDIDDDMNWYQQKPGEAAILIISEGNTLRPGIPPRFSSSGYGTDFTLTINNIESEDAAYYFCLQSDNLPLTFGQGTKLEIKR
B4: the binding entry in assay [5] was “binds”.
